The test can be described thus: qHTS Assay for Modulators of Lamin A Splicing. The note with it: HeLa LMNA splicing GFP/RFP minigene ratio, 48 h. The essentials:
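Read-out is the ratio of GFP to DsRed2 object intensity, acquired by 488 nm laser-scanning cytometry on HeLa lamin A-EGFP minigene reporter cells. Compound incubation 48 hrs at 37 °C in Opti-MEM with 2% FBS; DMSO 0.5% final.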

Setting [1] is: measured here: GFP splicing reporter channel.
[2] abbreviates: measured here: RFP viability control channel.

“And” between values parts separate entries of the source, which are not always exact repeats. Equal values may be shown once. The list shows a part of the results. Further columns of the screen follow, without active or inactive calls. The list favours compounds with an active or inconclusive main result. Words in brackets tell the shape of the fitted curve; partial curves, single points and poor fits give uncertain potencies.

What is called AC50 is the midpoint of the concentration-response curve, whichever way the signal moves. As for `Fc1cc(NCc2ccccc2)nc(NCc2ccccc2)n1`, the AC50 under setting [1] is 31.6 µM [rising, single point] and the AC50 under setting [2] is 35.5 µM [rising, single point]. Turning to `CCOC(=O)c1ccc(CN(Cc2ccc(F)cc2)S(=O)(=O)c2ccc(F)c(C(=O)Nc3ccc(Cl)cc3F)c2)cc1`, the AC50 by setting is: under setting [1], 6.31 µM [rising, partial curve, poor fit]; under setting [2], 14.1 µM [rising, partial curve]. On to `CCOc1ccc(NC(=O)c2c(NCc3cccnc3)sc3c2CCCC3)cc1`, for which the AC50 under setting [1] was 17.8 µM [falling, partial curve, poor fit]. `O=C(Nc1ccc2c(c1)Cc1ccccc1-2)c1ccncc1`: under setting [2], the AC50 is 22.4 µM [rising, single point].

For `CCOC(=O)c1c(NC(=O)Cn2nc(C(=O)O)c3ccccc3c2=O)sc(CC)c1C`, under setting [2], the half-maximal activity concentration (AC50) was 0.282 µM [rising, full curve, poor fit]. Turning to `COc1ccc(-c2nnc(SCC(=O)Nc3cccc(C(F)(F)F)c3)nc2-c2ccc(OC)cc2)cc1`, the AC50 reads like this: under setting [1], 14.1 µM [rising, single point]; under setting [2], 11.2 µM [rising, partial curve, poor fit].

For the molecule `COC(=O)c1cc2ccsc2n1CC(=O)Nc1cc(Cl)ccc1OC`, the AC50 under setting [2] is 11.2 µM [rising, partial curve]. Consider `CN(CCCNC(=O)c1cc2c(Cl)nc3ccccc3c2s1)Cc1ccccc1`, for which the AC50 was 14.1 µM [falling, partial curve, poor fit] under setting [1] and 22.4 µM [falling, partial curve] under setting [2]. For the molecule `S=C(NCC1CCCO1)Nc1ccc(Cl)cc1` (stereo unspecified), under setting [1], the half-maximal activity concentration (AC50) was 35.5 µM [rising, single point].

Regarding `Cc1cc(C)c(NC(=O)Cn2cc(S(=O)(=O)Cc3ccccc3F)c3ccccc32)c(C)c1`, the concentration at half-maximal activity (AC50) under setting [2] was 4.47 µM [falling, full curve, poor fit]. With `CC(=O)Nc1ccc(-c2csc(NC(=O)CCCc3cccs3)n2)cc1`, the AC50 is 11.2 µM [rising, partial curve] under setting [1] and 15.8 µM [rising, single point] under setting [2]. Consider `Cc1ccc(C)n1CCN1CCN(C(=O)CSc2nc3ccccc3nc2N2CCOCC2)CC1`, for which the half-maximal activity concentration (AC50) under setting [2] is 35.5 µM [falling, single point]. The same measure, in the same setting: with `COc1ccccc1NC(=O)N(Cc1nnc2n1CCCCC2)c1ccc(F)cc1` the figure was 10 µM [rising, partial curve, poor fit].

In the case of `COc1ccc(/C=C2/SC(=S)N(CCC(=O)O)C2=O)cc1`, the AC50 under setting [1] was 31.6 µM [rising, single point].

`Cn1c(=O)oc2cc(S(=O)(=O)Nc3cccc(F)c3)ccc21`: the AC50 under setting [2] is 35.5 µM [rising, single point].

For the molecule `O=C(N/N=C/c1c(O)ccc2ccccc12)c1[nH]ncc1Br`, the AC50 under setting [2] was 12.6 µM [rising, partial curve].

Turning to `C=CCOc1c(CNc2ccc(S(N)(=O)=O)cc2)cccc1OC`, the AC50 under setting [2] is 20 µM [rising, single point]. Still for that read-out and setting: with `C/C(=N/N=C1/NC(=O)CC(C(=O)Nc2ccccc2)S1)c1cccs1` (stereo unspecified) the figure was 2 µM [rising, partial curve]. `O=C(Cn1cc(C(F)(F)F)ccc1=O)N/N=C/c1cccc(Cl)c1Cl`: the concentration at half-maximal activity (AC50) under setting [1] is 5.01 µM [rising, partial curve, poor fit]. As to `Cc1nn(-c2ccccc2)c(N2CCCC2)c1/C=N/Nc1ccc(S(N)(=O)=O)cc1[N+](=O)[O-]`, under setting [2], the AC50 is 14.1 µM [rising, single point]. Turning to `Cc1sc2ncnc(NC3CCN(Cc4ccccc4)CC3)c2c1C`, the AC50 under setting [1] was 1 µM [falling, full curve, poor fit].

With `Cc1ccc2onc(CC(=O)N3CCN(c4ccc(F)cc4)CC3)c2c1`, the AC50 under setting [1] is 12.6 µM [falling, single point] and the AC50 under setting [2] was 35.5 µM [falling, single point]. Consider `Cc1cc(O)c2ccccc2c1O`, for which the concentration at half-maximal activity (AC50) is, setting by setting: under setting [1], 20 µM [rising, single point]; under setting [2], 11.2 µM [falling, partial curve]. On to `O=C1C=C(Nc2ccc(Cl)cc2)CC(c2ccccc2)C1` (stereo unspecified), for which the AC50 under setting [2] was 8.91 µM [rising, partial curve]. As to `O=C(Nc1ccc(Oc2ccc(C(F)(F)F)cn2)c(Cl)c1)C1CC1`, the AC50 is, setting by setting: under setting [1], 31.6 µM [falling, partial curve]; under setting [2], 31.6 µM [falling, partial curve]. `Cc1cc(N2CCCC2)nc(N2C3CCC2CC(O)(c2ccc(F)cc2)C3)n1` (stereo unspecified): the AC50 runs as follows: under setting [1], 15.8 µM [falling, partial curve, poor fit]; under setting [2], 7.08 µM [falling, full curve, poor fit].

In the case of `Fc1ccc(Nc2nc(SCc3ccc(Cl)cc3)nc3ccccc23)cc1`, the AC50 runs as follows: under setting [1], 35.5 µM [falling, single point]; under setting [2], 35.5 µM [falling, partial curve, poor fit]. Take `O=S(=O)(NCC(c1ccco1)S(=O)(=O)c1ccccc1)c1cc(F)ccc1F` (stereo unspecified): the AC50 under setting [2] is 35.5 µM [rising, single point]. As to `COc1cnc(-c2ccccn2)nc1NC(C)C`, the AC50 under setting [1] is 35.5 µM [rising, partial curve, poor fit] and the concentration at half-maximal activity (AC50) under setting [2] is 35.5 µM [rising, partial curve]. On to `NCCOB(c1ccccc1)c1ccccc1`, for which the AC50 under setting [1] was 35.5 µM [rising, single point]. For the molecule `O=C(C/C(=N\NC(=O)c1ccccc1Br)C(F)(F)F)c1cccs1`, the AC50 was 17.8 µM [rising, single point] under setting [1] and 22.4 µM [rising, single point] under setting [2]. `CC(=O)Oc1ccc2occ(/C=N/c3cc(=O)[nH]c(=S)[nH]3)c(=O)c2c1`: the AC50 is 2.24 µM [rising, partial curve, poor fit] under setting [1] and 0.112 µM [rising, full curve, poor fit] under setting [2]. On to `Cc1nn(C)cc1C1Nc2ccccc2C(=O)N1O` (stereo unspecified), for which, under setting [2], the AC50 is 1.58 µM [rising, partial curve, poor fit]. As to `N[C@H](Cc1cc(I)c(Oc2cc(I)c(O)c(I)c2)c(I)c1)C(=O)O`, the AC50 is, setting by setting: under setting [1], 0.355 µM [falling, partial curve]; under setting [2], 0.0891 µM [falling, full curve, poor fit]. Regarding `COC(=O)Nc1ccc(S(=O)(=O)Nc2cccc3ccccc23)cc1`, the concentration at half-maximal activity (AC50) under setting [2] was 12.6 µM [rising, partial curve]. On to `COc1ccccc1Cn1c(-c2ccccc2OC)nc2ccccc21`, for which the AC50 reads like this: under setting [1], 25.1 µM [rising, single point]; under setting [2], 31.6 µM [rising, single point]. For `O=c1ccc2ccccc2o1`, the concentration at half-maximal activity (AC50) is, setting by setting: under setting [1], 3.55 µM [rising, single point] and 4.47 µM [falling, partial curve, poor fit]; under setting [2], 0.794 µM [falling, full curve, poor fit]. For the molecule `Cc1cccc(N2CCN(CC(=O)NCC3CCCCC3)CC2)c1C`, the concentration at half-maximal activity (AC50) runs as follows: under setting [1], 15.8 µM [rising, single point]; under setting [2], 22.4 µM [rising, single point].

For `COc1ccc(OC)c(NC(=O)Cc2nn(C)c(=O)c3ccccc23)c1`, the AC50 by setting is: under setting [1], 7.94 µM [rising, partial curve]; under setting [2], 11.2 µM [rising, partial curve]. As to `Cc1ccc(C(=O)c2cn[nH]c2-c2ccccc2O)cc1`, the concentration at half-maximal activity (AC50) under setting [2] was 8.91 µM [rising, partial curve, poor fit]. On the same count and under the same terms, with `CC(C)C(C(=O)NCc1ccco1)N(C(=O)CNS(=O)(=O)c1ccccc1)C1CCCC1` (stereo unspecified) the figure was 0.398 µM [falling, full curve, poor fit]. As to `NC(=O)CSc1nnnn1-c1cccc(Cl)c1`, the AC50 under setting [1] was 0.0251 µM [falling, full curve, poor fit] and the AC50 under setting [2] was 0.0355 µM [falling, full curve].

For the molecule `CC(Nc1oc(-c2ccco2)nc1C#N)c1ccccc1` (stereo unspecified), the AC50 under setting [2] was 4.47 µM [rising, full curve, poor fit].

For `Cc1ccccc1CN1CCC(CNC(=O)c2cc3ccc4cccnc4c3[nH]2)CC1`, under setting [1], the AC50 was 0.00891 µM [falling, full curve, poor fit]. As for `C=CCn1c(CCC(O)CCCCC)n[nH]c1=S` (stereo unspecified), the AC50 by setting is: under setting [1], 14.1 µM [rising, single point]; under setting [2], 35.5 µM [rising, single point]. Turning to `O=C(CCc1c[nH]c2ccccc12)N1CCN(c2ccc(O)cc2)CC1`, the AC50 under setting [2] was 10 µM [rising, partial curve, poor fit]. Regarding `COC(=O)C1=C(C)N(CCCC(=O)O)C(=O)NC1c1cccs1` (stereo unspecified), the half-maximal activity concentration (AC50) under setting [1] was 0.0282 µM [falling, full curve, poor fit]. Turning to `NC(=O)[C@@H]1CCNc2c(I)cc([N+](=O)[O-])cc2C(=O)N[C@@H](CCC(=O)O)C(=O)N[C@@H](CO)C(=O)N1`, the AC50 was 0.00501 µM [falling, full curve, poor fit] under setting [1] and 0.00501 µM [falling, full curve, poor fit] under setting [2].

For `CN(C)c1ccnc2sc(C(=O)NCc3ccccc3)c(N)c12`, the AC50 under setting [2] is 17.8 µM [rising, single point]. Same read-out and setting: with `Cc1ccc(-n2c(=S)[nH]c3[nH]ncc3c2=O)cc1` the figure was 0.251 µM [falling, full curve, poor fit]. Take `COc1ccc(-c2cc(C(F)(F)F)n3nc(C(=O)OC(C)C)cc3n2)cc1`: under setting [1], the AC50 was 0.1 µM [rising, full curve, poor fit]. As for `COc1ccc(-c2cc(=O)c(C(=O)c3ccc(C)cc3)n[nH]2)cc1`, the AC50 under setting [2] was 20 µM [falling, partial curve, poor fit]. `Cc1nn(Cc2ccccc2)c(Cl)c1/C=C/C(=O)OC(C)C(=O)N1CCCC1` (stereo unspecified): the AC50 under setting [1] was 0.02 µM [falling, full curve, poor fit].

Turning to `CC(=O)c1c(C)[nH]c(C(=O)OCC(=O)Nc2cc(C(F)(F)F)ccc2N2CCOCC2)c1C`, the AC50 under setting [1] was 35.5 µM [rising, single point] and the AC50 under setting [2] is 35.5 µM [rising, single point].

These data come from PubChem BioAssay AID1487 (National Center for Advancing Translational Sciences (NCATS), 2009).
